{"source": "ChEMBL document CHEMBL5365534", "about": "“Discovery of a Novel Ketohexokinase Inhibitor with Improved Drug Distribution in Target Tissue for the Treatment of Fructose Metabolic Disease” (J Med Chem, 2023)", "key": {"physchem [1]": {"assay": "physchem", "settings": "buffer, pH 7.4"}, "physchem [2]": {"assay": "physchem"}}}
{"smiles": "C[C@H]1CCN1c1nc(N2CCC3(CC(C(=O)O)C3)C2)cc(C(F)(F)F)c1C#N", "note": "(some centres not stated)", "values": [{"measurement": "logD", "setting": "physchem [1]", "value": 1.75}, {"measurement": "solubility kinetic", "setting": "physchem [2]", "value": "> 1000", "unit": "µM"}]}
